According to publication PMC7618786:

T1: HA-tagged iR2-1-374, nuclear N-terminal fragment of mouse iRhom2 (tetracycline inducible) (mouse) (UniProt Q80WQ6)
T1 sequence: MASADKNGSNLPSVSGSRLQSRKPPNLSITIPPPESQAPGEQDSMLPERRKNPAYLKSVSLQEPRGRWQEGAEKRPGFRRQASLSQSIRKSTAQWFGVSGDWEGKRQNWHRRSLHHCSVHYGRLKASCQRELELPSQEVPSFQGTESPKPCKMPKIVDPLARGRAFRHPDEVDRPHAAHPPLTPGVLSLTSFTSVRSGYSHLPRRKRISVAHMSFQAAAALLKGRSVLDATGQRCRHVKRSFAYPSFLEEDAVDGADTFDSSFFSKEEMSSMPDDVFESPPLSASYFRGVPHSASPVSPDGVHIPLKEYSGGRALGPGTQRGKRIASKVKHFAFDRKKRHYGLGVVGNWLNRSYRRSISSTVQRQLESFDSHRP

B1: SEC11A, catalytic subunit of the signal peptidase complex (SEC11A-Myc-FLAG) (enzyme, UniProt P67812 1-179)
chain: MLSLDFLDDVRRMNKRQLYYQVLNFGMIVSSALMIWKGLMVITGSESPIVVVLSGSMEPAFHRGDLLFLTNRVEDPIRVGEIVVFRIEGREIPIVHRVLKIHEKQNGHIKFLTKGDNNAVDDRGLYKQGQHWLEKKDVVGRARGFVPYIGIVTILMNDYPKFKYAVLFLLGLFVLVHRE

How the values were obtained:
[1] = target: T1, HA-tagged iR2-1-374, nuclear N-terminal fragment of mouse iRhom2 (tetracycline inducible) (mouse); experiment: co-IP; HEK293T stably expressing tetracycline-inducible HA-tagged iR2-1-374; IP: HA; immunoblot for endogenous nuclear proteins
[2] = target: mouse iRhom2 lacking the luminal iRhom homology domain, C-terminal HA tag (iR2_ΔIRHD) (mouse) (UniProt Q80WQ6); experiment: co-IP; HEK293T transfected with HA-tagged iRhom2 constructs and SEC11A, 36-48 h; Triton X-100 lysate; IP: HA with anti-HA magnetic beads, 4°C overnight; washes with 500 mM NaCl; immunoblot
[3] = target: mouse iRhom2 uncleavable LVLF mutant with C-terminal HA tag (mouse) (UniProt Q80WQ6); experiment: as above

| Molecule | binding [1] | binding [2] | binding [3] |
| --- | --- | --- | --- |
| transcription factor IID (TFIID) (human (endogenous in HEK293T)) | binds |  |  |
| B1 |  | binds | binds |

No constants are given. Whether binding was seen depends on the method and setting. In cells and extracts the contact can be indirect. Binding can be weak; no strength is given. Tags and fused reporters may be left off the sequences shown.
